Consider two sequences from paper PMC4932547, “Improved Aptamers for the Diagnosis and Potential Treatment of HER2-Positive Cancer”.

For the data set, the target named is HER2 on cell surface (SKOV3, SKBR3) (UniProt P04626). Briefly: competition with a labelled probe. Particulars: 100-fold excess on SKOV3, blocks anti-HER2 antibody and reduces labeled aptamer binding; Selection buffer: 10 mM HEPES, 120 mM NaCl, 5 mM MgCl2, 5 mM KCl; pH not stated; SPRi temperature not stated (50 uL/min, 50 or 100 nM HER2, BSA-blocked chip); protein on the cell surface; single-stranded DNA.

For at least one entry, the source does not settle the construct or the ends of the probe. At least one result comes from cells or an extract, where the contact may be indirect.

Regarding “ATTAAGAACCATCACTCTTCCAAATGGATATACGACTGGG [HeA2_1 non-fluorescent competitor]”, the binding result is on record as “binds”.
For “TCTAAAAGGATTCTTCCCAAGGGGATCCAATTCAAACAGC [HeA2_3 non-fluorescent competitor]” the value was “binds”.
